{
  "source": "patent US6545011B2",
  "about": "“Substituted 4,9-dihydrocyclopenta[imn]phenanthridine-5-ones, derivatives thereof and their uses” (Guilford Pharmaceuticals Inc., priority 2000, dated 2003)",
  "test_system": "focal cerebral ischemia in male Long-Evans rats",
  "assay": "Focal cerebral ischemia (right distal MCA cauterization with temporary bilateral CCA occlusion, 90 min)",
  "format": "in vivo, rat",
  "conditions": "10 mg/kg; laser Doppler; control 20.8±7.7",
  "data": [
    {"compound": "O=C1NCCc2c(OCCCCN3CCCCC3)cccc21", "note": "[DPQ, 3,4-dihydro-5-[4-(1-piperidinyl)-butoxy]-1(2H)-isoquinolinone]", "values": [
      {"measurement": "relative blood flow in the right parietal cortex during occlusion, % of the baseline", "value": "1.4±7.7", "unit": "%"}
    ]}
  ]
}
